The target of assay [1] is T1, PHGDH-HA, expressed in TLR4-293T cells (UniProt Q61753).
T1 sequence: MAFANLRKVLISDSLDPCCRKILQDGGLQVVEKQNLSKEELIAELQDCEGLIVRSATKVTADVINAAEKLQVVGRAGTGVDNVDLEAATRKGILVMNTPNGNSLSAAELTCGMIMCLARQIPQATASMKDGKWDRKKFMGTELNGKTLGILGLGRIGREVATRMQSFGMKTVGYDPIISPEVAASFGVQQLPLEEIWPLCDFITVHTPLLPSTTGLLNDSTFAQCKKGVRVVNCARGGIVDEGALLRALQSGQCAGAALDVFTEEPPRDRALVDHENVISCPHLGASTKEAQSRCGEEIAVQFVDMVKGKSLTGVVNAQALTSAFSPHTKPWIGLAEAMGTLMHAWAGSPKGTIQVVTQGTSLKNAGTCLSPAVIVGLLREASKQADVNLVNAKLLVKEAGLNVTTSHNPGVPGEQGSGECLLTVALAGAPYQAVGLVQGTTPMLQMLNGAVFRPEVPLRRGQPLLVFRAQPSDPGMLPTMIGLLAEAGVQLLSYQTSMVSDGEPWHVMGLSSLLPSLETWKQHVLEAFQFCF
Nature of the assay: co-IP; PHGDH-HA precipitated with anti-HA-agarose from TLR4-293T extracts; without or with LPS 30 min (Fig. 4C), LPS for the indicated times (Fig. 4G), pretreated with 15 μM CBR-5884 for 6 h then LPS 30 min (Fig. 5B); immunoblot. For orientation: A western blot detects proteins with antibodies after separation by electrophoresis.

In assay [2] the target is T2, TAK1 in RAW264.7 cells transfected with the indicated plasmids (Figure 6C) (UniProt Q62073).
T2 sequence: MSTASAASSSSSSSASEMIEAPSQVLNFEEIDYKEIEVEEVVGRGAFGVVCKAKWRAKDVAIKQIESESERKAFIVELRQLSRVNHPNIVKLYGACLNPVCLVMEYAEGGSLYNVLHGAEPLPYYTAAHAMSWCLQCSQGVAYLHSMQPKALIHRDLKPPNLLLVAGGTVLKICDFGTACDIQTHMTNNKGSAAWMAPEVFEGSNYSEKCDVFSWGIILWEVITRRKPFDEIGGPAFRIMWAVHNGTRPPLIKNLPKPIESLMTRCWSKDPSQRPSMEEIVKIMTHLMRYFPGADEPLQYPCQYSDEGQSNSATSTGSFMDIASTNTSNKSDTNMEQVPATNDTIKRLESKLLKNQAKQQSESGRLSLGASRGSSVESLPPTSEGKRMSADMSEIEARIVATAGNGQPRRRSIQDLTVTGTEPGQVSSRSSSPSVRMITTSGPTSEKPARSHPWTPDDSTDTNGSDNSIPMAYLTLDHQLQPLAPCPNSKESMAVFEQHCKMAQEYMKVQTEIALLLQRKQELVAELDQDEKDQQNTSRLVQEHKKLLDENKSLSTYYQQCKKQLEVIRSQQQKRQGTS
Nature of the assay: co-IP; RAW264.7 cells transfected with the indicated plasmids and treated with LPS for 30 min; immunoprecipitation and immunoblot.

For assay [3], the target named is T3, TAK1, endogenous in mouse peritoneal macrophages (mouse (endogenous in peritoneal macrophages)) (UniProt Q62073).
T3 sequence: T2 sequence
Nature of the assay: co-IP; endogenous TAK1 precipitated with an anti-TAK1 antibody from PM extracts without or with LPS 30 min; immunoblot.

For assay [4], the target named is T4, TAK1-Flag, expressed in TLR4-293T cells (UniProt Q62073).
T4 sequence: T2 sequence
Nature of the assay: co-IP; TAK1-Flag precipitated with anti-Flag beads from TLR4-293T extracts without or with LPS 30 min; immunoblot.

The target in assay [5] is T1, PHGDH-HA, expressed in TLR4-293T cells. The assay is described as follows: co-IP; PHGDH-HA precipitated with anti-HA-agarose from TLR4-293T extracts; without or with LPS 30 min (Fig. 4C), LPS for the indicated times (Fig. 4G), pretreated with 15 μM CBR-5884 for 6 h then LPS 30 min (Fig. 5B); immunoblot. This is another data set of the same source.
Assay [6] deals with T5, PHGDH, endogenous in mouse peritoneal macrophages (mouse (endogenous in peritoneal macrophages)) (UniProt Q61753).
T5 sequence: T1 sequence
Nature of the assay: co-IP; endogenous PHGDH precipitated with an anti-PHGDH antibody from PM extracts without or with LPS 30 min; immunoblot.

In assay [7] the target is T6, PHGDH-Flag, expressed in TLR4-293T cells (UniProt Q61753).
T6 sequence: T1 sequence
The assay is described as follows: co-IP; Flag-PHGDH precipitated with anti-Flag beads from TLR4-293T cells transfected with Ctrl-Flag, PHGDH-Flag or PHGDH(V425M)-Flag; immunoblot.

Like-named read-outs stand apart in the source and are kept apart here. No constants are given. Whether binding was seen depends on the method and setting. Binding seen in cells or lysates may run through a third protein. Some entries that bind do so weakly or less than the wild type. For some of these results: Sequences can lack the tags named with a protein.

As to “DNAJA1 (molecular chaperone) in TLR4-293T cell extracts (from UniProt P31689 1-397)”, the binding result in assay [1] was “binds”.

B1: PHGDH overexpressed in RAW264.7 cells (Figure 6C) (enzyme, UniProt Q61753 1-533)
chain: T1 sequence
For B1, the binding entry in assay [2] is “binds”.

B2: PHGDH, endogenous in mouse peritoneal macrophages (enzyme, UniProt Q61753 1-533, looked up)
chain: T1 sequence
notes: phosphoglycerate dehydrogenase (PHGDH), endogenous in mouse peritoneal macrophages; Seen as tetramers and dimers after cross-linking of the lysate; also called endogenous PHGDH; source: endogenous, mouse peritoneal macrophage (PM) extract
As to B2, in assay [3], the binding entry was “binds”.

B3: PHGDH-HA, expressed in TLR4-293T cells (enzyme, UniProt Q61753 1-533)
chain: T1 sequence
Regarding B3, the binding entry in assay [4] is on record as “binds”.

B4: TAK1-Flag, expressed in TLR4-293T cells (enzyme, UniProt Q62073 1-579)
chain: T2 sequence
For the molecule B4, the binding entry in assay [5] is recorded as “binds”.

B5: TAK1, endogenous in mouse peritoneal macrophages (enzyme, UniProt Q62073 1-579)
chain: T2 sequence
For B5, the binding entry in assay [6] is “binds”.

B6: TAK1 in extracts of TLR4-293T cells transfected with the Flag-PHGDH plasmids (Figure 5F) (enzyme, UniProt O43318 1-606)
chain: MSTASAASSSSSSSAGEMIEAPSQVLNFEEIDYKEIEVEEVVGRGAFGVVCKAKWRAKDVAIKQIESESERKAFIVELRQLSRVNHPNIVKLYGACLNPVCLVMEYAEGGSLYNVLHGAEPLPYYTAAHAMSWCLQCSQGVAYLHSMQPKALIHRDLKPPNLLLVAGGTVLKICDFGTACDIQTHMTNNKGSAAWMAPEVFEGSNYSEKCDVFSWGIILWEVITRRKPFDEIGGPAFRIMWAVHNGTRPPLIKNLPKPIESLMTRCWSKDPSQRPSMEEIVKIMTHLMRYFPGADEPLQYPCQYSDEGQSNSATSTGSFMDIASTNTSNKSDTNMEQVPATNDTIKRLESKLLKNQAKQQSESGRLSLGASRGSSVESLPPTSEGKRMSADMSEIEARIAATTAYSKPKRGHRKTASFGNILDVPEIVISGNGQPRRRSIQDLTVTGTEPGQVSSRSSSPSVRMITTSGPTSEKPTRSHPWTPDDSTDTNGSDNSIPMAYLTLDHQLQPLAPCPNSKESMAVFEQHCKMAQEYMKVQTEIALLLQRKQELVAELDQDEKDQQNTSRLVQEHKKLLDENKSLSTYYQQCKKQLEVIRSQQQKRQGTS
With B6, in assay [7], the binding entry was “binds”.

Source of the values: publication PMC12509985, “Phosphoglycerate dehydrogenase interacts with and inhibits the protein kinase TAK1 to mitigate septic shock” (The Journal of Biological Chemistry, 2025).
